From US20220174981A1, “PROLINE TOLERANT TRIPEPTIDYL PEPTIDASES AND USES THEREOF” (DuPont Nutrition Biosciences APS, priority 2014, published 2022)
Values joined by “and” are separate entries in the source; they are usually repeats but may differ in a detail not shown here. Equal entries are not always repeated. Where two headings read alike, the source gives them in different places. The name of at least one read-out is uncertain.

B1: TRI050: tripeptidyl peptidase, SEQ ID No. 7/SEQ ID No. 34, used as broth (protein, listed as Fusarium graminearum)
chain 1: KSYSHHAEAPKGWKVDDTARVASTGKQQVFSIALTMQNVDQLESKLLDLSSPDSKNYGQWMSQKDVTTAFYPSKEAVSSVTKWLKSKGVKHYNVNGGFIDFALDVKGANALLDSDYQYYTKEGQTKLRTLSYSIPDDVAEHVQFVDPSTNFGGTLAFAPVTHPSRTLTERKNKPTKSTVDASCQTSITPSCLKQMYNIGDYTPKVESGSTIGFSSFLGESAIYSDVFLFEEKFGIPTQNFTTVLINNGTDDQNTAHKNFGEADLDAENIVGIAHPLPFTQYITGGSPPFLPNIDQPTAADNQNEPYVPFFRYLLSQKEVPAVVSTSYGDEEDSVPREYATMTCNLIGLLGLRGISVIFSSGDIGVGAGCLGPDHKTVEFNAIFPATCPYLTSVGGTVDVTPEIAWEGSSGGFSKYFPRPSYQDKAVKTYMKTVSKQTKKYYGPYTNWEGRGFPDVAGHSVSPNYEVIYAGKQSASGGTSAAAPVWAAIVGLLNDARFRAGKPSLGWLNPLVYKYGPKVLTDITGGYAIGCDGNNTQSGKPEPAGSGIVPGARWNATAGWDPVTGYGTPDFGKLKDLVLSF
chain 2: CQTSITPSCLKQMYNIGDYTPKVESGSTIGFSSFLGESAIYSDVFLFEEKFGIPTQNFTTVLINNGTDDQNTAHKNFGEADLDAENIVGIAHPLPFTQYITGGSPPFLPNIDQPTAADNQNEPYVPFFRYLLSQKEVPAVVSTSYGDEEDSVPREYATMTCNLIGLLGLRGISVIFSSGDIGVGAGCLGPDHKTVEFNAIFPATCPYLTSVGGTVDVTPEIAWEGSSGGFSKYFPRPSYQDKAVKTYMKTVSKQTKKYYGPYTNWEGRGFPDVAGHSVSPNYEVIYAGKQSASGGTSAAAPVWAAIVGLLNDARFRAGKPSLGWLNPLVYKYGPKVLTDITGGYAIGCDGNNTQSGKPEPAGSGIVPGARWNATAGWDPVTGYGTPDFGKLKDLVLS
modifications: used as fermentation broth
B2: TRI071: Proline tolerant tripeptidyl peptidase TRI071 (SEQ ID No. 12 or SEQ ID No. 39) (protein, listed as Fusarium oxysporum)
chain 1: KSFSHHAEAPQGWQVQKTAKVASNTQHVFSLALTMQNVDQLESKLLDLSSPDSANYGNWLSHDELTSTFSPSKEAVASVTKWLKSKGIKHYKVNGAFIDFAADVEKANTLLGGDYQYYTKDGQTKLRTLSYSIPDDVAGHVQFVDPSTNFGGTVAFNPVPHPSRTLQERKVSPSKSTVDASCQTSITPSCLKQMYNIGDYTPDAKSGSEIGFSSFLGQAAIYSDVFKFEELFGIPKQNYTTILINNGTDDQNTAHGNFGEANLDAENIVGIAHPLPFKQYITGGSPPFVPNIDQPTEKDNQNEPYVPFFRYLLGQKDLPAVISTSYGDEEDSVPREYATLTCNMIGLLGLRGISVIFSSGDIGVGSGCLAPDYKTVEFNAIFPATCPYLTSVGGTVDVTPEIAWEGSSGGFSKYFPRPSYQDKAIKKYMKTVSKETKKYYGPYTNWEGRGFPDVAGHSVAPDYEVIYNGKQARSGGTSAAAPVWAAIVGLLNDARFKAGKKSLGWLNPLIYKHGPKVLTDITGGYAIGCDGNNTQSGKPEPAGSGLVPGARWNATAGWDPTTGYGTPNFQKLKDLVLSL
chain 2: CQTSITPSCLKQMYNIGDYTPDAKSGSEIGFSSFLGQAAIYSDVFKFEELFGIPKQNYTTILINNGTDDQNTAHGNFGEANLDAENIVGIAHPLPFKQYITGGSPPFVPNIDQPTEKDNQNEPYVPFFRYLLGQKDLPAVISTSYGDEEDSVPREYATLTCNMIGLLGLRGISVIFSSGDIGVGSGCLAPDYKTVEFNAIFPATCPYLTSVGGTVDVTPEIAWEGSSGGFSKYFPRPSYQDKAIKKYMKTVSKETKKYYGPYTNWEGRGFPDVAGHSVAPDYEVIYNGKQARSGGTSAAAPVWAAIVGLLNDARFKAGKKSLGWLNPLIYKHGPKVLTDITGGYAIGCDGNNTQSGKPEPAGSGLVPGARWNATAGWDPTTGYGTPNFQKLKDLVLS
B3: TRI053.1: tripeptidyl peptidase, SEQ ID No. 10/SEQ ID No. 37, used as broth (protein, listed as Aspergillus kawachii)
chain 1: VVHEKLAAVPSGWHHLEDAGSDHQISLSIALARKNLDQLESKLKDLSTPGESQYGQWLDQEEVDTLFPVASDKAVISWLRSANITHIARQGSLVNFATTVDKVNKLLNTTFAYYQRGSSQRLRTTEYSIPDDLVDSIDLISPTTFFGKEKTSAGLTQRSQKVDNHVAKRSNSSSCADTITLSCLKEMYNFGNYTPSASSGSKLGFASFLNESASYSDLAKFERLFNLPSQNFSVELINGGVNDQNQSTASLTEADLDVELLVGVGHPLPVTEFITSGEPPFIPDPDEPSAADNENEPYLQYYEYLLSKPNSALPQVISNSYGDDEQTVPEYYAKRVCNLIGLVGLRGISVLESSGDEGIGSGCRTTDGTNSTQFNPIFPATCPYVTAVGGTMSYAPEIAWEASSGGFSNYFERAWFQKEAVQNYLANHITNETKQYYSQFANFSGRGFPDVSAHSFEPSYEVIFYGARYGSGGTSAACPLFSALVGMLNDARLRAGKSTLGFLNPLLYSKGYKALTDVTAGQSIGCNGIDPQSDEAVAGAGIIPWAHWNATVGWDPVTGLGLPDFEKLRQLVLSL
chain 2: CADTITLSCLKEMYNFGNYTPSASSGSKLGFASFLNESASYSDLAKFERLFNLPSQNFSVELINGGVNDQNQSTASLTEADLDVELLVGVGHPLPVTEFITSGEPPFIPDPDEPSAADNENEPYLQYYEYLLSKPNSALPQVISNSYGDDEQTVPEYYAKRVCNLIGLVGLRGISVLESSGDEGIGSGCRTTDGTNSTQFNPIFPATCPYVTAVGGTMSYAPEIAWEASSGGFSNYFERAWFQKEAVQNYLANHITNETKQYYSQFANFSGRGFPDVSAHSFEPSYEVIFYGARYGSGGTSAACPLFSALVGMLNDARLRAGKSTLGFLNPLLYSKGYKALTDVTAGQSIGCNGIDPQSDEAVAGAGIIPWAHWNATVGWDPVTGLGLPDFEKLRQLVLS
modifications: used as fermentation broth

Test system: H-Ala-Ala-Phe-pNA
Assay: Low pH stability of tripeptidyl peptidases (pH 2.5, 40° C., 60 min), activity on H-Ala-Ala-Phe-pNA
Assay type: biochemical
Method: As requirements for utilization of the enzymes in feed for monogastric animals, the enzymes should be active at lower pH. For this reason the number of tripeptidyl peptidases has been tested with the reaction on synthetic substrate AAF (H-Ala-Ala-Phe-pNA. BACHEM, L-1095), at pH 2.5.
The tripeptide substrate AAF was prepared at 2.5 mg/ml in DMSO. Tripeptidyl peptidases were used as broth. The reaction mixture containing 2.5 μl enzyme and 90 μL glycine acetic acid-Tris buffer (each buffer components at 50 mM, pH 2.5) was prepared in 96 well incubation plates.
The incubation plate was mixed and incubated at 40° C. for 60 min. Then 50 μl 0.2M Mes-NaOH pH6.0 was added to each well, mixed at 600 rpm for 2 min. After that, 5 ul of the incubation mixture were taken to 96 well assay plate already filled with 85 μl 0.1M acetic acid buffer, pH4.0 and 5 μl 2.5 mg/ml AAF substrate solution.
The reaction mixture was stirred at 600 rpm for 2 min and read directly in a microplate reader (Molecular Devices, Denmark) at 410 nm at 30° C. every 30 second for 15 min.
To measure initial enzyme activity, similar procedure was performed except the step of enzyme incubation at 40° C. for 60 min.

Row | Molecule | Activity recovery (%) | Activity recovery (%) (listed as TRI050.3) | Activity recovery (%) (listed as TRI071 (pool1) 2% glu/soph) | Activity recovery (%) (listed as TRI071 (pool1) 4% glu/soph)
1 | B1 | 91% | 83% |  | 
2 | B2 |  |  | 78% and 82% | 97% and 90%
3 | B3 | 103% |  |  | 
